In article PMC2691592:
No constants are given. Whether binding was seen depends on the method and setting. In cells and extracts the contact can be indirect. Some binding calls cover weakened binding; strength is not graded here. For some of these results: Where a sequence is shown, tags or fusion partners need not be part of it.

Protein sequences, listed by entry. Tags and fused reporters are not part of them.
UniProt P46580: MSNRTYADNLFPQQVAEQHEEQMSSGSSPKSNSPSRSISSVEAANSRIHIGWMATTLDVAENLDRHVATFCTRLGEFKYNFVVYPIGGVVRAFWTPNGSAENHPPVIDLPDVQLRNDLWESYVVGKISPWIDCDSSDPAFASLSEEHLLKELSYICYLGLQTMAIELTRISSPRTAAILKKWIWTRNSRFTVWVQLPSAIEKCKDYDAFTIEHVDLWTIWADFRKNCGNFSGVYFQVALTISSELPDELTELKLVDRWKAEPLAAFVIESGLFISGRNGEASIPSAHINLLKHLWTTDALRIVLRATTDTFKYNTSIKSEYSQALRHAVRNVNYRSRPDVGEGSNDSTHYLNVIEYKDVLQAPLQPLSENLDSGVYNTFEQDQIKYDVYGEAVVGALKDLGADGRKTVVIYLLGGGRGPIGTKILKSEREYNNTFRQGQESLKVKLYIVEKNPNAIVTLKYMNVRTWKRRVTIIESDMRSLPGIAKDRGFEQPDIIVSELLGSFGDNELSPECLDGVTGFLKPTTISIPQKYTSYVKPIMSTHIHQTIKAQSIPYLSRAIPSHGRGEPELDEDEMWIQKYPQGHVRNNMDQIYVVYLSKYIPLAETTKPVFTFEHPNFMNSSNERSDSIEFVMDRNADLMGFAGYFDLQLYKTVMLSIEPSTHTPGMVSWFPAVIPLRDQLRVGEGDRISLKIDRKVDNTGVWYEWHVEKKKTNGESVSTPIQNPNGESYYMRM

T1: GST-CEP-1 (C. elegans) (UniProt Q20646)
T1 sequence: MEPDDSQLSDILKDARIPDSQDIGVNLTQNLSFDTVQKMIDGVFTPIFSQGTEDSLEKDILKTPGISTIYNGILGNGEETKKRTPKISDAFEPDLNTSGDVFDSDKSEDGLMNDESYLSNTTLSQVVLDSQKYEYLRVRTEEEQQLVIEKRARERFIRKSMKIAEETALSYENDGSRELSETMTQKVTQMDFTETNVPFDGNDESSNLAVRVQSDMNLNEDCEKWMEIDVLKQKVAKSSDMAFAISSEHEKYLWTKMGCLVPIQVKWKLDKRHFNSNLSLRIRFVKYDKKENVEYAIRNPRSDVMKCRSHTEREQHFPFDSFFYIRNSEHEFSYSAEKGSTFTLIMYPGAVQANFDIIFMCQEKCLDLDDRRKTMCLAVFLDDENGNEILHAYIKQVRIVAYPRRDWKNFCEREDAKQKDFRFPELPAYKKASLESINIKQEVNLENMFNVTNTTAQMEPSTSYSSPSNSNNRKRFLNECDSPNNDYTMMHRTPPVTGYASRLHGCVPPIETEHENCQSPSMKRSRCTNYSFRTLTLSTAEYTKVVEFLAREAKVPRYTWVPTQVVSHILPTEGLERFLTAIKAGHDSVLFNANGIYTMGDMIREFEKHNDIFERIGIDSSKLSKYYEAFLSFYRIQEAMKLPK

B1: CBP-1(771–1285) (domain or fragment, UniProt P34545 771-1285)
chain: VSAMLQPKTEPMDDQNTDSLSSRPPTAIGFGGSSSSTPAPIMNGIVKKEEDPEESSNQAPPSVKDTKDGVAESKPKEQQAKREPTPPPTEDTVFSQEDLIKFLLPVWEKLDKSEDAAPFRVPVDAKLLNIPDYHEIIKRPMDLETVHKKLYAGQYQNAGQFCDDIWLMLDNAWLYNRKNSKVYKYGLKLSEMFVSEMDPVMKSMGYCCAKKLAFTPLSLFCYGAAMCTIAREQQYWVFEQSSTQYNVTVTERYTYCQKCFDALPPEGISLSENPNDRNNMAPKTSFTEQKNSVIDYEPFERCKYCMRKWHRICALHDKKVYPEGFICECCRTAKKYQKPDNKYLASKLPHNKLSTFLEDRVNGFIKKQLQAEAHKYPVIIRTLCVQDKEAEVKAQMKQKYVESNQFPEKFPYRTKAVFAFEIIDGVEVCFFGLHVQEYGSACPAPNARRVYIAYLDSVHFFQPRELRTDVYHELLLGYLDYAKMLGYTMAHIWACPPSEGDDYIFHCHPPEQKIP
modifications: [35S]methionine-labeled
B2: CBP-1(1286–1770) (domain or fragment, UniProt P34545 1286-1770)
chain: KPKRLQDWYKKMLEKGVQEGSVVEFKDIYKQARDDNLTTPTQLPYFEGDFWPNVIEDCIREASNEEAQRKVKEDDDDGEDADGGLGGGDSGKKKSSKNKKNNLKKNAKMNKKKAGSITGNEVADKLYSQFEKHKEVFFTIRLVSLQNEPAVLAKPISDPDGLMQSDMMDGRDTFLTKAREEHWEFSSLRRAKYSTLCLAYSLHETDSKGMEYTCNKCSSPAVWHCQSCDDFDLCDGCKPTTQHPHEMEKIKSLIGGGEAGDSAAGGTRYESIQRCIASLVHACQCRDANCRRMSCHKMKRVVQHTKMCKKRINGTCPVCKQLIALCCYHAKHCTRDACTVPFCMNIRQKLAEQKRSQQRRADMMMRRRMEGLQSHVGGAAPTPSTVSNGTPSNAPTPPVSAGPGPAVKGGGVGQVQMQQHQGSHVGGSGPAGMGQPMNSFGGMPGMGLGPNAQNGPGLPGMNPQMNANQSRYMPNGPGLGQSGAP
modifications: [35S]methionine-labeled
B3: CBP-1(1–320) (35S-labeled, in vitro translated) (domain or fragment, UniProt P34545 1-320)
chain: MDEPPSKKSRADSDYDSGLDALSALESLEAFPTSSKDTDVDNNPSTSAGGSGGPSGSTPHPQGTPQPAPSNNGGFNLQPGQSQPQQPPQNMGGGVNGSVLQELLMNPSQTSNNSPRPQAYPPGQQNAFNRSPMMPNGTPNMMSPPSMGRVPGPSPGGPQPPGPGQPQMRPGQPGMFQGDQQQQMMMGAQGQQFPGMMHRYPYAQGGPPPGAQGMPQGYPGVSRGGPTPGQPMGRGAMMNGAMPRSGPMPTQGRPGIPPNQQAMMQPMMTDRQFMQHGQYGQQRPEFMQQYGRPGGYPMMHQGMMMDSNGQPIRGPNQMMM
modifications: [35S]methionine-labeled

Assays:
[1] = target: T1, GST-CEP-1 (C. elegans); assay: pull-down; purified GST fusion protein immobilised on glutathione-Sepharose beads, incubated with [35S]methionine-labeled in vitro translated proteins at 4°C for more than 2 h; SDS-PAGE and autoradiography; only the target purified
[2] = target: GST-PRMT-5 (C. elegans) (UniProt P46580); assay: as above

Binder	binding [1]	binding [2]
B1	binds	–
B2	binds	binds
B3	–	binds
